# The whole screen tested about 350,000 compounds, of which about 220 (0.063%) were called active. This list was built around the results that the source calls inconclusive (neither active nor inactive); the mix of calls is not that of the screen. The call rests on the fitted dose curve; in most records, active means well fitted activation curve with a large enough effect; inconclusive means small, poorly fitted or top-dose-only effect; inactive means no such curve, though single readings can be large or run the other way. Potencies beside an inconclusive call are fits to weak or partial responses and may not hold up.
# Test: qHTS for Activators of Integrin-Mediated Alleviation for Muscular Dystrophy; further: nearly all actives have a fitted effect of over 60% in size
# Details: alpha7betagal myoblasts, beta-gal FDG fluorescence, 48 h; series mostly up to 38.3 µM
# How it was run: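 alpha7betagal+/- myoblasts (passage 13, 250/well) treated 48 h at 37C with compounds at 1:260 dilution of DMSO stock. Lysed, then beta-galactosidase activity read as FDG fluorescence (ex 480/em 540) after 30 min, with pre-read for autofluorescence.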
# Potency means the concentration at half of the fitted maximal effect.
row,Structure (SMILES),Potency
1,CCOC(=O)Cc1c[nH]c2ccc([N+](=O)[O-])cc12,"inconclusive: 28.2 µM [activator, single point]"
2,Oc1ccccc1-c1n[nH]c(=S)n1Cc1ccccc1,"inconclusive: 7.94 µM [activator, partial curve, poor fit]"
3,CCc1cccc(NC(=O)CN(C)S(=O)(=O)c2cccs2)c1,"inconclusive: 5.01 µM [activator, single point]"
4,CN1CCN(C(=O)/C(=C/c2cccc([N+](=O)[O-])c2)NC(=O)c2ccccc2)CC1,"inconclusive: 2.82 µM [activator, partial curve, poor fit]"
5,NC1=Nc2cccc3cccc1c23,active: 7.94 µM
6,Cc1nn(Cc2cccc(C(=O)NC34CC5CC(CC(C5)C3)C4)c2)c(C)c1Br,inactive
7,CCOC(=O)c1cc2c(=O)n3ccccc3nc2n(CCOC)c1=NC(=O)c1ccncc1,inactive
8,Cc1ccc(-c2cn3c(n2)CCCC3)cc1,inactive
9,O=C(Nc1cccc(Cl)c1)c1cc(S(=O)(=O)NCCc2ccc(Cl)cc2)ccc1F,inactive
10,Cn1c(/C(C#N)=C(\O)c2ccccc2Cl)nc2ccccc21,"inconclusive: 5.01 µM [activator, single point]"
11,COCCN(C(=S)Nc1ccc(OC)c(Cl)c1)C1CCN(C(C)=O)CC1,inactive
12,Cc1ccc(S(=O)(=O)NC(Cc2ccccc2)C(=O)O)cc1 (configuration not stated),"inconclusive: 11.2 µM [activator, single point]"
13,Cc1ccc(S(=O)(=O)N2CCCCC2C(=O)O)s1 (configuration not stated),"inconclusive: 28.2 µM [activator, single point]"
14,COc1cc(C=O)ccc1OCC(=O)NC(C)(C)C,"inconclusive: 1.78 µM [activator, partial curve, poor fit]"
15,Clc1ccc2c(N/N=C/c3ccc(Br)cc3)ccnc2c1,inactive
16,COc1ccc(OC)c(/C=N/n2c(COc3ccccc3)n[nH]c2=S)c1,"inconclusive: 0.501 µM [activator, full curve, poor fit]"
17,O=C(Oc1c(CN2CCOCC2)cc(Cl)c2cccnc12)c1ccccc1,inactive
18,COc1ccc(C(=O)N/C(=C\c2cccc([N+](=O)[O-])c2)C(=O)Nc2cccc(C(=O)O)c2)cc1,inactive
19,Nn1cnnc1SCC(=O)N1CCc2ccccc2C1,"inconclusive: 0.501 µM [activator, full curve, poor fit]"
20,O=C(N/N=C(\Cc1ncc[nH]1)c1ccccc1)c1ccncc1,"inconclusive: 10 µM [activator, single point]"
21,COc1ccc(N2CCN(C(=O)CNC(=O)c3cccs3)CC2)cc1,"inconclusive: 3.16 µM [activator, partial curve, poor fit]"
22,Cc1cccc(N2CCN(S(=O)(=O)c3ccc4c(c3)NC(=O)C(C)S4)CC2)c1C (configuration not stated),inactive
23,O=C(c1cc(-c2ccc(Br)cc2)nc2ccccc12)N1CCC1,inactive
24,CC(C)(C)NC(=O)COC(=O)c1ccccc1NC(=O)c1ccco1,inactive

row,Structure (SMILES),Potency
1,COc1ccc(NC(=O)N2CCN(c3nc4ccccc4n3C(C)C)CC2)cc1,"inconclusive: 28.2 µM [activator, single point]"
2,CCN1CCCc2cc(CN(CCN3CCOCC3)C(=S)Nc3ccccc3OC)ccc21,"inconclusive: 2.82 µM [activator, partial curve, poor fit]"
3,Cc1ccc(/C=C2\CCOC2=O)cc1,inactive
4,O=C(NCc1ccccc1Cl)c1ccc(CSc2nc3ccncc3[nH]2)cc1,inactive
5,O=C(CCNS(=O)(=O)c1ccccc1F)OCc1ccccc1Cl,"inconclusive: 1 µM [activator, full curve, poor fit]"
6,O=S(=O)(NCCc1ccc(Cl)cc1)c1cccs1,"inconclusive: 0.631 µM [activator, partial curve, poor fit]"
7,CC1(C)CC(=S)Nc2ccccc2S1,inactive
8,Fc1cccc(Cl)c1CNn1cn[nH]c1=S,"inconclusive: 2 µM [activator, partial curve, poor fit]"
9,CCCCN(CC)Cc1ccc(CNC(=S)Nc2ccccc2F)o1,"inconclusive: 3.55 µM [activator, partial curve]"
10,Cc1cc2[nH]c(=O)c(=O)[nH]c2cc1S(=O)(=O)NC1CCCCC1C (configuration not stated),inactive
11,Cc1cccc(NC(=S)NNC(=O)c2csc(C)c2)c1,inactive
12,CSc1nsc(SCC(=O)Nc2ccccn2)n1,"inconclusive: 2.82 µM [activator, single point]"
13,Cc1cc(C)c2c(N)c(C(=O)c3cccc(Cl)c3)sc2n1,inactive
14,O=C(CCc1nnc2ccc(N3CCOCC3)nn12)Nc1ccc(F)cc1F,"inconclusive: 3.16 µM [activator, single point]"
15,O=C(c1ccccc1)c1ccc(O)cc1O,"inconclusive: 2.82 µM [activator, partial curve, poor fit]"
16,CC(=O)Nc1ccc(NC(=O)[C@@H](NC(=O)c2cccc(C)c2)C(C)C)cc1,active: 5.62 µM
17,Cc1ccc(C(=O)COC(=O)CNC(=O)COc2ccccc2C)cc1C,"inconclusive: 2.82 µM [activator, partial curve, poor fit]"
18,CCC(C)NC(=O)C1CCC(CNS(=O)(=O)c2ccc3c(c2)CC(C)N3C(C)=O)CC1 (configuration not stated),"inconclusive: 3.98 µM [activator, single point]"
19,O=C(CSc1n[nH]c(-c2ccccc2)n1)c1ccccc1,inactive
20,O=C(NNC(=O)c1cccc(O)c1)Nc1ccc([N+](=O)[O-])cc1,"inconclusive: 28.2 µM [activator, single point]"
21,COc1ccc(-c2cc3ccc(OC(C)C(=O)O)cc3oc2=O)cc1 (configuration not stated),"inconclusive: 10 µM [activator, single point]"
22,COc1ccc(C(=O)NNC(=O)c2ccc(S(=O)(=O)N3CC(C)OC(C)C3)cc2)cc1 (configuration not stated),"inconclusive: 28.2 µM [activator, single point]"
23,CN(Cc1ccccc1)S(=O)(=O)c1ccc(Cl)c(C(=O)NCc2ccncc2)c1,"inconclusive: 6.31 µM [activator, full curve, poor fit]"

# A few values from the list.
# Potency, O=C(c1ccccc1)c1ccc(O)cc1O is entered as inconclusive: 2.82 µM [activator, partial curve, poor fit]
# Potency, CN(Cc1ccccc1)S(=O)(=O)c1ccc(Cl)c(C(=O)NCc2ccncc2)c1 is entered as inconclusive: 6.31 µM [activator, full curve, poor fit]

# From PubChem BioAssay AID624291 (National Center for Advancing Translational Sciences (NCATS), 2012)
